Source: publication PMC5075913
Changes are numbered by the printed parent chain. Results are given in words; binding and its absence hold for the method and conditions named. Binding seen in cells or lysates may run through a third protein. Some results given as binding are weak or reduced against the parent protein; the word gives no strength.

Chains of the proteins cited; added tags and fusions are not shown. Lines headed by an entry give the natural chain unless they say otherwise; changes in a name come on top.
UniProt O60331: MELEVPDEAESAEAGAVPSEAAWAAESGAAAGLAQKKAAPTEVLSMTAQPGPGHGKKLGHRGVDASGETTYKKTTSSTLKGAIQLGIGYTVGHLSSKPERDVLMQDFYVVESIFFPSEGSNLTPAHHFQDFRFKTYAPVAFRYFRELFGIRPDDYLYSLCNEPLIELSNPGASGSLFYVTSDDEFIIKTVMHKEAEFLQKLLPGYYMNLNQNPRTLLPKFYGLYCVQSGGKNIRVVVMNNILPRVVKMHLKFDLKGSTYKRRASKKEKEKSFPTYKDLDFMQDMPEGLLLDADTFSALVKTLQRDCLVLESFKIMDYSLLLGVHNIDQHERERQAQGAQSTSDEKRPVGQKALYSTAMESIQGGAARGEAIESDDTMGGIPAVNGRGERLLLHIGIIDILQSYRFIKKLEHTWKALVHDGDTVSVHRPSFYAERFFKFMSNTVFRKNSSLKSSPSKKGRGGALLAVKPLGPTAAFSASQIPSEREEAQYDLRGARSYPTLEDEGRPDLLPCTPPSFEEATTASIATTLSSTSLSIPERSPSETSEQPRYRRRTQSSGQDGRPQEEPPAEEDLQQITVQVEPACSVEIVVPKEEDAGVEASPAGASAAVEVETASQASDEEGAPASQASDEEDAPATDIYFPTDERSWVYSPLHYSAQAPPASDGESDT
UniProt P26039: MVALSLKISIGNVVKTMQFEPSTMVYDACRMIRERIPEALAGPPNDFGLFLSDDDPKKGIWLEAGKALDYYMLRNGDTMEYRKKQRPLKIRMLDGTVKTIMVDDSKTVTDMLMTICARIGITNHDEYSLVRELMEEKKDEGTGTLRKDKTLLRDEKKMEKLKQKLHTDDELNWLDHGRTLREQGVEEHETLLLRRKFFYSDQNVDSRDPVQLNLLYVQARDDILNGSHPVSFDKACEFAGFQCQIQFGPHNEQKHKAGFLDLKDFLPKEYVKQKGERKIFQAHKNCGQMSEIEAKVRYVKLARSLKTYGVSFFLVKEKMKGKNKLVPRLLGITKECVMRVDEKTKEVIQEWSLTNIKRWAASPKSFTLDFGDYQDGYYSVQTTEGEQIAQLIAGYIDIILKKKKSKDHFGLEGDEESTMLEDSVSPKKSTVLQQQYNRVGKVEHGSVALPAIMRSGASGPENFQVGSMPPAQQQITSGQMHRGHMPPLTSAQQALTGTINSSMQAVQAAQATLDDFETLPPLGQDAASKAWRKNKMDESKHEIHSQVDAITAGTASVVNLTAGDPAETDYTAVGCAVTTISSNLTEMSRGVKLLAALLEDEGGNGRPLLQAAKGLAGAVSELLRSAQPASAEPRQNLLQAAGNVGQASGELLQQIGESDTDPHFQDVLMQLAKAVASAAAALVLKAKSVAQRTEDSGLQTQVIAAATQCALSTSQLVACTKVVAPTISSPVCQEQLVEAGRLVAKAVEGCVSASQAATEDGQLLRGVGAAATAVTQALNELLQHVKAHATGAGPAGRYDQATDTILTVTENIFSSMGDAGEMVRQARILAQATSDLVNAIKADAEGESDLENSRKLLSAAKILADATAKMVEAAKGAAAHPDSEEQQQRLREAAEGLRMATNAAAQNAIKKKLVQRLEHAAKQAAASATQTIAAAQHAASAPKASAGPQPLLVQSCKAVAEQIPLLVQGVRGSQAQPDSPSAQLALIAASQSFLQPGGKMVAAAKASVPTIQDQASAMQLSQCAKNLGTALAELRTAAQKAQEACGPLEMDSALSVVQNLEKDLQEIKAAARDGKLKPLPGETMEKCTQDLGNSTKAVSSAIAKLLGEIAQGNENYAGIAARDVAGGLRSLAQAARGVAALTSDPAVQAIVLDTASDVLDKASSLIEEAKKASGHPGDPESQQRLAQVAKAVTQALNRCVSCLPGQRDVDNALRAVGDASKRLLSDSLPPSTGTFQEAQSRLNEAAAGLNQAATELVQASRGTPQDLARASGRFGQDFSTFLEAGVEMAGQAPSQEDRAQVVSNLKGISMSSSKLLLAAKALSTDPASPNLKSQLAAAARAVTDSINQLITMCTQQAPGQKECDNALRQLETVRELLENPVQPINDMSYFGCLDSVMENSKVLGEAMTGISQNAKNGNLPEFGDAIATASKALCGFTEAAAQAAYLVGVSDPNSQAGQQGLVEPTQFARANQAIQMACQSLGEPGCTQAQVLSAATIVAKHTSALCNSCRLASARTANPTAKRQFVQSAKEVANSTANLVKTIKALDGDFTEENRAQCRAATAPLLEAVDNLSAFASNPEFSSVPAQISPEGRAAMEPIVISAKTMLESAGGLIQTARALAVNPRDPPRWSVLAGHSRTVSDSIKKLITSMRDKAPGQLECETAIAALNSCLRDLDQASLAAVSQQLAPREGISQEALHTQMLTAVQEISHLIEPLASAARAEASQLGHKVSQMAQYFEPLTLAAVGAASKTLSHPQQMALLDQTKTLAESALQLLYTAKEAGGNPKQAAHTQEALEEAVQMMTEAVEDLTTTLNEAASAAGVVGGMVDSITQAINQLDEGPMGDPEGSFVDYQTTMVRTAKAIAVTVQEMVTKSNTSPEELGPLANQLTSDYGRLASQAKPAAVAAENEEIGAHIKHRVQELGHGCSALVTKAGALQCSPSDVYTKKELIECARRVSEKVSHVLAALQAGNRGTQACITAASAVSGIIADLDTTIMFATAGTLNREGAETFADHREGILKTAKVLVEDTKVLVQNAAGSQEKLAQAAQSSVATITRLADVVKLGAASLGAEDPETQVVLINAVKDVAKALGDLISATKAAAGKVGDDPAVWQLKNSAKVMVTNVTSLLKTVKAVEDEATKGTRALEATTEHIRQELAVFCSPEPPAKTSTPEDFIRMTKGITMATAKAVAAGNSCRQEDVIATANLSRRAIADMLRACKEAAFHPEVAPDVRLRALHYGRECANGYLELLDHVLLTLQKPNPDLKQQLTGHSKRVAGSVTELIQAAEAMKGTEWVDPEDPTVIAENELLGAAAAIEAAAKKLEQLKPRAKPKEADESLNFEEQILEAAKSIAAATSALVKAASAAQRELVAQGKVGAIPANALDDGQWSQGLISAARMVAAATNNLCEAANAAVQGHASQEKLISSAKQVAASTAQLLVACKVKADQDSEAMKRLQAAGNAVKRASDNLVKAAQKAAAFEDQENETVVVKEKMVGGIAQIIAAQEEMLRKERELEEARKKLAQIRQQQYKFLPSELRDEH
UniProt Q05397: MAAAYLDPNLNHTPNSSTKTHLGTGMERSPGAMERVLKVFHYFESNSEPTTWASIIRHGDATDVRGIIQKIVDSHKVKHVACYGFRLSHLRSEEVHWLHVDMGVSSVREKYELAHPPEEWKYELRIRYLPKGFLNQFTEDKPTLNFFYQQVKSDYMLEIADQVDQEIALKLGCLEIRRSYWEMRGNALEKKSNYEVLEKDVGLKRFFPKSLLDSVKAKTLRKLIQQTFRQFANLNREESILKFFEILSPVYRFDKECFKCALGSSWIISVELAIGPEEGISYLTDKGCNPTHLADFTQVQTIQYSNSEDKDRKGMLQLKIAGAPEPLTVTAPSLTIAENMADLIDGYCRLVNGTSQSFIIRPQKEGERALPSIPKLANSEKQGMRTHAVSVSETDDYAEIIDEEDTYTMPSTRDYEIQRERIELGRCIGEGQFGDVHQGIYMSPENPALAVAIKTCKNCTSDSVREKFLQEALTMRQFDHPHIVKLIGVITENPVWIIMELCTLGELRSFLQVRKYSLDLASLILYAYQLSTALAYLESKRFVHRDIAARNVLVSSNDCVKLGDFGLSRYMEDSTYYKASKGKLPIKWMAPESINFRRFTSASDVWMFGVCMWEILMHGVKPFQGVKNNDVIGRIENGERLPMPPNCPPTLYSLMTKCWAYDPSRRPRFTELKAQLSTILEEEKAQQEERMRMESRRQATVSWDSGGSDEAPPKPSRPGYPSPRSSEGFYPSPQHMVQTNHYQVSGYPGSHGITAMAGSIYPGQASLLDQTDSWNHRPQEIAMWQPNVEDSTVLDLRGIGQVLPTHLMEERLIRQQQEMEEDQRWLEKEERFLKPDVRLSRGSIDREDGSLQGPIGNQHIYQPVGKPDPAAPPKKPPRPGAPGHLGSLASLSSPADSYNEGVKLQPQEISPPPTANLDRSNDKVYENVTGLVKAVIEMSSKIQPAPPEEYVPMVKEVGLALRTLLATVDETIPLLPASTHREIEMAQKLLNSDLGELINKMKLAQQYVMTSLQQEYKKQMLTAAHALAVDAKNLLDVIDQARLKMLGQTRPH
UniProt P34152: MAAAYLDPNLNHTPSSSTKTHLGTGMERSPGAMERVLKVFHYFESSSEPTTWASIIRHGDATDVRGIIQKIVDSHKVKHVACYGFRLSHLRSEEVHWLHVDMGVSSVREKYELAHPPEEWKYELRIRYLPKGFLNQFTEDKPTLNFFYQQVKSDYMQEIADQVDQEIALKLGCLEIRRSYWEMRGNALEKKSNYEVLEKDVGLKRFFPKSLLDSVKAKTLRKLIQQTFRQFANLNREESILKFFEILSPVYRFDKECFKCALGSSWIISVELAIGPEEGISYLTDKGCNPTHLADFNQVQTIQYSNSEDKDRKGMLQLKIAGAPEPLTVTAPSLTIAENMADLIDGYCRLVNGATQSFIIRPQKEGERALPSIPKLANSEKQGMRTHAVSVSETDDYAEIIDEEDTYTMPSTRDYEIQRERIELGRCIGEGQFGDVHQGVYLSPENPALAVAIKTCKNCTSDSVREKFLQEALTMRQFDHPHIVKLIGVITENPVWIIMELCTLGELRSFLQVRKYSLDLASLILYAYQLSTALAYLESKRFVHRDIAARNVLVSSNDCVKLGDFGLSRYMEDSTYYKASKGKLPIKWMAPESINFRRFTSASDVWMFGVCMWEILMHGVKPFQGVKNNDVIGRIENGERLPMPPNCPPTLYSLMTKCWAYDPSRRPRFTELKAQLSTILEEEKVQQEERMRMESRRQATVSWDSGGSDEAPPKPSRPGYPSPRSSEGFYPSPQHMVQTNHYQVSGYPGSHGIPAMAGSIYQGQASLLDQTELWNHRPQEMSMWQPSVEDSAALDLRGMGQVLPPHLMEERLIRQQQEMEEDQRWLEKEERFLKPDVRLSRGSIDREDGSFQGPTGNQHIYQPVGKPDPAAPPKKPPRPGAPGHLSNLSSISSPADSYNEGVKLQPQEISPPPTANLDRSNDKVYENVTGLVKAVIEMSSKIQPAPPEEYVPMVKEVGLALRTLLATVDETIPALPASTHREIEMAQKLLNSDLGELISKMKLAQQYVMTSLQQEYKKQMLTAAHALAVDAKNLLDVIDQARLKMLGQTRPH

What was measured:
[1] = target: HA-tagged PIP5Klγ.S448A (human) (UniProt O60331); experiment: co-IP; Hek293T cells co-transfected with GFP-tagged Talin and HA-tagged PIP5Klγ or PIP5Klγ.S448A (S448A also with FLAG-tagged PKD1.CA); anti-HA immunoprecipitation, blot with anti-GFP
[2] = target: HA-tagged phosphatidylinositol-4-phosphate 5-kinase type-l gamma (PIP5Klγ), wild type (human) (UniProt O60331); experiment: as above
[3] = target: T1, constitutively-active PKD1 (S738E/S742E), ectopically expressed (human) (UniProt Q15139); experiment: co-IP; ectopically-expressed FAK and ectopically-expressed PKD1 (wild type or constitutively-active); Supplemental Figure S1C,D; who was precipitated is not told in the text shown
T1 sequence: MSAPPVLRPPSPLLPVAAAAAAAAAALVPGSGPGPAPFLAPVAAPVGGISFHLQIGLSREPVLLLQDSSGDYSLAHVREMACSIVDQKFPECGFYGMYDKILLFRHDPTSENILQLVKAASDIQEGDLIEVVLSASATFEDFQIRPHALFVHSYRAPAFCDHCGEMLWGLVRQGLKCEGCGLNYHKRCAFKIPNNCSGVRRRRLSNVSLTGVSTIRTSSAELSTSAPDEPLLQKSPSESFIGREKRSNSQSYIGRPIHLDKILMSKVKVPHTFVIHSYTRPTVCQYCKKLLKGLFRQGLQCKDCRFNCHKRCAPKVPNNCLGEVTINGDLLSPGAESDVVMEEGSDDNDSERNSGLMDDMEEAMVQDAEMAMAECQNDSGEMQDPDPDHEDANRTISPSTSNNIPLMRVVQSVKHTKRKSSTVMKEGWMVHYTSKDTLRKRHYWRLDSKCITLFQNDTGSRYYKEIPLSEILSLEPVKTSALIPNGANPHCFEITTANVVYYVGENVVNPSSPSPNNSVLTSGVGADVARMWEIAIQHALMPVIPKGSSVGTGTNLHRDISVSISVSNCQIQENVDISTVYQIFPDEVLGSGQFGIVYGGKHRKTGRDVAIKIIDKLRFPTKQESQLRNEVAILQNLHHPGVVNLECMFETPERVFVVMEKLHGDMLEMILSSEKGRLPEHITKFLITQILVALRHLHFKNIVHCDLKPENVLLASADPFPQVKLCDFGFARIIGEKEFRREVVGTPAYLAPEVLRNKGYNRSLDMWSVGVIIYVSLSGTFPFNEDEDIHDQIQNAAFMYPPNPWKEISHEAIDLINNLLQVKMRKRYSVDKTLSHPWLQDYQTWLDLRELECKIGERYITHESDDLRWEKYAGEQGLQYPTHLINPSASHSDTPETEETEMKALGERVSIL

[4] = target: T2, wild type PKD1, ectopically expressed (human) (UniProt Q15139); experiment: as above
T2 sequence: T1 sequence with E738S, E742S

[5] = target: T3, Protein Kinase D1 (PKD1), endogenous (mouse (endogenous in NIH-3T3)) (UniProt Q62101); experiment: co-IP; NIH-3T3 cells serum-starved for 16 hours, stimulated with 10 μg/ml fibronectin for 30 minutes; endogenous PKD1 immunoprecipitated, blot for endogenous FAK; lysis in Buffer A (50 mM Tris-HCl pH7.4, 1% Triton X-100, 150 mM NaCl, 5 mM EDTA)
T3 sequence: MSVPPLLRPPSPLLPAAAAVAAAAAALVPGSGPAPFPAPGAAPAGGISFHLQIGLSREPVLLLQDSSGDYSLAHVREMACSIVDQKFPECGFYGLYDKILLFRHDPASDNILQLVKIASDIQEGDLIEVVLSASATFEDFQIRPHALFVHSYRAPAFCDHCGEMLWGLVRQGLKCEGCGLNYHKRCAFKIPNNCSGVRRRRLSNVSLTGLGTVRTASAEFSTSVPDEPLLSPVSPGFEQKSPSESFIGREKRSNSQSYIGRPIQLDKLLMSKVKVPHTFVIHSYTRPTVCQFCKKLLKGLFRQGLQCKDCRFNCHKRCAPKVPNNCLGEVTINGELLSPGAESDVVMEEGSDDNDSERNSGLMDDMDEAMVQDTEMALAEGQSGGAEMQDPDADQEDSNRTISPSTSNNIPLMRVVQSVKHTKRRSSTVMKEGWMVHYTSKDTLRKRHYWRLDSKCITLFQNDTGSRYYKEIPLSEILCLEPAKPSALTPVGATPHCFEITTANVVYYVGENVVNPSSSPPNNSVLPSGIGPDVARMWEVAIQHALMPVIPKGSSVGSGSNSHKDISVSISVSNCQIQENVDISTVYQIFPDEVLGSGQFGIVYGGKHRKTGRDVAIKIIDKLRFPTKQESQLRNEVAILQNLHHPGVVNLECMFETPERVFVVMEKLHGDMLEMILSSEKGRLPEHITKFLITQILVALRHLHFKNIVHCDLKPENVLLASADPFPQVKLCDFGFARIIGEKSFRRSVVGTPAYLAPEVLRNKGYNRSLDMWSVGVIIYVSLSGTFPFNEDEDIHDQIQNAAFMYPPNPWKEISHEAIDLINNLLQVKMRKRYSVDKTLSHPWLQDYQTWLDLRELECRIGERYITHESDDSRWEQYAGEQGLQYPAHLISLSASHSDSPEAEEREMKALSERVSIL

GFP-tagged Talin (from UniProt P26039 1-2541)
binding [1]: binds
binding [2]: binds

ectopically-expressed FAK (from UniProt Q05397 1-1052) (enzyme)
binding [3]: binds
binding [4]: binds

focal adhesion kinase (FAK), endogenous (from UniProt P34152 1-1052) (enzyme)
binding [5]: binds
